The values that follow come from article PMC8235097.

The chains behind the UniProt entries cited, without tags or fusion partners. Residues count along the entry.
UniProt O75197, residues 32-1615: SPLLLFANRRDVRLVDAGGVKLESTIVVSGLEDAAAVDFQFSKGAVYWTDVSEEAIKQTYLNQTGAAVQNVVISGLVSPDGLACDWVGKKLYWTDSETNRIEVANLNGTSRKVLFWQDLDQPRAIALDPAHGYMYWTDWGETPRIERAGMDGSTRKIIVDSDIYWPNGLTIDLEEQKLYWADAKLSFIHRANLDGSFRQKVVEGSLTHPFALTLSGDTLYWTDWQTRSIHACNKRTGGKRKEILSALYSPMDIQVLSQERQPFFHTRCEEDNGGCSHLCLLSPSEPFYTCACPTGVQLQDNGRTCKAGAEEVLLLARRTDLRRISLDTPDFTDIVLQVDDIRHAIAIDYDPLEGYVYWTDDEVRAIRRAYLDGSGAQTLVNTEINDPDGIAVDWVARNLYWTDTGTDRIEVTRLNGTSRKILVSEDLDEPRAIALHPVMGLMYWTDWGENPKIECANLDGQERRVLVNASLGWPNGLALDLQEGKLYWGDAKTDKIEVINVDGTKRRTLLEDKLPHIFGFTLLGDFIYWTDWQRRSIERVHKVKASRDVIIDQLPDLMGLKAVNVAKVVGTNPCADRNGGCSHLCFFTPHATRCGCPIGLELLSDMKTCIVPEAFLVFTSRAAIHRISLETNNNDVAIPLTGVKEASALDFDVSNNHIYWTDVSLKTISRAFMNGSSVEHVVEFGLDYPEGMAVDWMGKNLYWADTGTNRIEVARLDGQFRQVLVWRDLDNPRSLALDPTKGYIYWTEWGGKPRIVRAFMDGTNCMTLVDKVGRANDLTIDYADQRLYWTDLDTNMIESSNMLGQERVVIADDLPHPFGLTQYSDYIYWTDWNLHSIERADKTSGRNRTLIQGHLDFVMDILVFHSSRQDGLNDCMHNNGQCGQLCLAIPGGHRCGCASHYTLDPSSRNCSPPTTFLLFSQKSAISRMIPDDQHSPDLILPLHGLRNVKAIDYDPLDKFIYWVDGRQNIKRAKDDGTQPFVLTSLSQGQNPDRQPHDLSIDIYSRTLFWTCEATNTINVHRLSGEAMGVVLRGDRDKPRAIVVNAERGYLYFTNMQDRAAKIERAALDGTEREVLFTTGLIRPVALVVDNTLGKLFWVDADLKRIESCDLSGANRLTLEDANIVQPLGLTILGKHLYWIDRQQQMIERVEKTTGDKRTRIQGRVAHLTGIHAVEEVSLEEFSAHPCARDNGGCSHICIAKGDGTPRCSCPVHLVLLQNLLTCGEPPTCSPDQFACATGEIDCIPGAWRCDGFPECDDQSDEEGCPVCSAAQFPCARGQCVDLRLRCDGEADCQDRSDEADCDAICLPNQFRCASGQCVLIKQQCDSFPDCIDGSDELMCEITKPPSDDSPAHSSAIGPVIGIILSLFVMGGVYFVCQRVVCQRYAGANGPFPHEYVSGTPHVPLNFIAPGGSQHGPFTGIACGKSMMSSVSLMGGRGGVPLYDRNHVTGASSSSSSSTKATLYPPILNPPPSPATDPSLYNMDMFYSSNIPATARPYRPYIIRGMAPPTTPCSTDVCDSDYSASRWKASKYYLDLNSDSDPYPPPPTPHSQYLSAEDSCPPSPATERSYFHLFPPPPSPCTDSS
UniProt Q6AYU4: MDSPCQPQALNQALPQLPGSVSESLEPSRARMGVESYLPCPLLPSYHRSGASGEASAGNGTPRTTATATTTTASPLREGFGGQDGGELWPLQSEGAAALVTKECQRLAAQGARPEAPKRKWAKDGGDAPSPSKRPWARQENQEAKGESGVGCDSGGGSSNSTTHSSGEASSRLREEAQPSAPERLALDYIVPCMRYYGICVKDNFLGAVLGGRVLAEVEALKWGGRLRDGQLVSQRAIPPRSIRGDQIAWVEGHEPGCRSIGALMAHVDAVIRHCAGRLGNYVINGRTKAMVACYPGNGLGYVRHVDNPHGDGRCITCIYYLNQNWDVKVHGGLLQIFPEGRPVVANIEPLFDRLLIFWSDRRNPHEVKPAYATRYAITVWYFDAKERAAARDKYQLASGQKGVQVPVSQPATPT
UniProt Q62630: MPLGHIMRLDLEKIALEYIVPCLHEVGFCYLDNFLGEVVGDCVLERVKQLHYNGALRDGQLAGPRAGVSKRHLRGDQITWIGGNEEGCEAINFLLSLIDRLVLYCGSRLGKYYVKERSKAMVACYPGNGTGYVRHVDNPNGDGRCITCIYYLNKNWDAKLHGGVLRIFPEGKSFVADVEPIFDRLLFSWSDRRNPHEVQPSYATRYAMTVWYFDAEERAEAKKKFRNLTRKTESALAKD

The experiment concerns the target full-length human LRP5 with a C-terminal Myc tag (low-density lipoprotein receptor-related protein 5) (human) (UniProt O75197). In words: co-IP; whole-cell lysates (RIPA buffer) of adenovirus-infected neonatal rat cardiomyocytes exposed to hypoxia; precipitated with anti-Myc antibody and protein A/G-agarose, washed with EBC buffer (20 mM Tris, 500 mM NaCl, 1 mM EDTA, 0.5% NP-40); western blot. Background: A western blot detects proteins with antibodies after separation by electrophoresis.

No constants are given. Whether binding was seen depends on the method and setting. In cells and extracts the contact can be indirect.

“endogenous PHD1 (HIF-prolyl hydroxylase 1) (from UniProt Q6AYU4 1-415) (enzyme)”: the binding result was “no binding”. In the case of “endogenous PHD3 (HIF-prolyl hydroxylase 3) (from UniProt Q62630 1-239) (enzyme)”, the binding result was “no binding”.
